These are yes or no findings as the source states them, for the method shown. Binding seen in cells or lysates may run through a third protein. Here binding means that the protein was enriched with, or labelled near, the bait; the list need not be complete.

Assay [1] addresses McaB-GFP (Magnetospirillum magneticum AMB-1). The experiment in a line: affinity purification with mass spectrometry; GFP-tagged bait expressed in AMB-1, lysate of 20 L of culture on GFP-Trap agarose beads, eluted with 200 mM glycine pH 2.5; GFP alone as control.
In assay [2] the target is McaA-GFP (Magnetospirillum magneticum AMB-1). The assay is described as above.

B1: Mms6 (protein, UniProt Q2W8R5 1-133)
chain: MGEMEREGAAAKAGAAKTGAAKTGTVAKTGIAAKTGVATAVAAPAAPANVAAAQGAGTKVALGAGKAAAGAKVVGGTIWTGKGLGLGLGLGLGAWGPIILGVVGAGAVYAYMKSRDIESAQSDEEVELRDALA
B1: the binding entry in assay [1] is on record as “binds”.

B2: MamJ (protein, UniProt Q2W8Q7 1-506)
chain: MANNRRDRDKGDGSQGEGLSAGGGMPSEPEIVSVTVHPTPTLAVSLKPAQQGDIWASLLESSPWSANHGGRIEPVQPSPAPTRPTESPSVGDLVSRWSQPIWRTPSRVEEVETPESNFVIELEASQPITSDITVSVSDLVIEVQPIQTTEAEPEPELPVAEPEPGVVPVDVVAEAEPEPELPVAEPEPGVVPVDVVAEAEPEPELPVAEPEPEVVPVDVVAEAEPEPELPVAEPEPEVVPVDVVAEAEPEPELPVAEPEPEVVPVDVVAEAEPEPELPVAAPEPEVLPVEVVAEAEPEPELPVAAPEPEVLPVEVVAEAEPEPELPVAAPEPEVVPVDVVAEAEPEPELPVAEPELVHEAAVSEPVAESIEDAVAVPAPATNFGLAELMQAAAAMAPVLASPPSVAPAAKPVREPAKKRKAPPVRKKVATVQDVPVEDLLGGIFGIAGSAVRSVLSLGAGVVGGVVKGGRVIGDNVVAGARRLTGSAEGSCGTCSTSQCDTVGKKK
For the molecule B2, the binding entry in assay [1] was “binds”.

B3: MamK (protein, UniProt Q2W8Q6 1-347)
chain: MSEGEGQAKNRLFLGIDLGTSHTAVMSSRGKKFLLKSVVGYPKDVIGLKLLGRPYVVGDEAFEMRSYLDIRYPLQDGVLSEISDRDIEVARHLLTHVVKSAEPGPNDEICAVIGVPARASAANKALLLKMAQEVVHTALVVSEPFMVGYGLDKLINTIIVDIGAGTTDICALKGTVPGPEDQVTLTKAGNYVDERLQNAILERHPELQMNVNVACAVKEQFSFVGTPTEVASFEFRAAGKPVRADVTEPVKIACEALMPDIIESIETLLRSFQPEYQATVLQNIVFAGGGSRIRGLAAYVKEKLRPFGDANVTCVKDPTFDGCRGALRLAEELPPQYWRQLGDVSGS
For B3, the binding result in assay [2] is “binds”.

B4: MamA (protein, UniProt Q2W8Q0 1-217)
chain: MSSKPSDILDEVTLYAHYGLSVAKKLGMNMVDAFRAAFSVNDDIRQVYYRDKGISHAKAGRYSQAVMLLEQVYDADAFDVDVALHLGIAYVKTGAVDRGTELLERSLADAPDNVKVATVLGLTYVQVQKYDLAVPLLIKVAEANPINFNVRFRLGVALDNLGRFDEAIDSFKIALGLRPNEGKVHRAIAFSYEQMGRHEEALPHFKKANELDEGASV
As to B4, the binding entry in assay [2] and in assay [1] was “binds” throughout.

Source of the values: article doi:10.1101/2025.11.10.687720, “Magnetosome organelles are organized through interactions between McaA and McaB that alter the dynamics of the bacterial actin-like protein MamK” (bioRxiv, 2025).
